Over roughly 33,000 sequences, “E-score (-0.5 to 0.5)” has its median near -0.0059; the highest 2% begin near 0.26. The list shows a part of the results.
molecular target: T1, Cin5 (UniProt P40917); test: PBM E-score (8-mer binding enrichment) (E-score (-0.5 to 0.5)); higher = stronger / more preferred TF binding; settings: protein concentration: 100 nM; construct: GST-full length
T1 sequence: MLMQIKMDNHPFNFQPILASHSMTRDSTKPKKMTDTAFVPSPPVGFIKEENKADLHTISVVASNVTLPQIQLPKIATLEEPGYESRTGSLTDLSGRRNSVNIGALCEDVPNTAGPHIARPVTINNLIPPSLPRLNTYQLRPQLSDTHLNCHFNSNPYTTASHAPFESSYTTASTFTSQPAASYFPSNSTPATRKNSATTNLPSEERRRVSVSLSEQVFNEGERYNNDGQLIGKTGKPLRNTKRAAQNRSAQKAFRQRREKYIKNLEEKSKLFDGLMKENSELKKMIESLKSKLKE
Experimental: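 Universal 'all 10-mer' protein binding microarrays (Agilent AMADID 015681) probed with GST-tagged S. cerevisiae TFs (full-length or DBD) made by in vitro transcription/translation (PURExpress), about 100-200 nM. Bound TF was detected with fluorescent anti-GST. Each ungapped 8-mer (which stands for itself and its reverse complement) is scored by the PBM enrichment score (E-score), a modified Wilcoxon-Mann-Whitney statistic from -0.5 to +0.5, computed with the Universal PBM Analysis Suite. Scale: above 0.35 generally sequence-specific binding.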

Sequence	PBM E-score
TGGATACA	0.0703
CATCGGGC	-0.081
AAAGTAAG	0.00481
ACGACTAA	-0.0545
CTAAACAC	-0.0679
GCCAGCAA	-0.0858
GGCGGACC	-0.213
CCCGTTGA	-0.132
ACACCCCC	-0.432
CGCCGACG	-0.177
GTGGGAAC	-0.144
CAGCTTCC	-0.0882
GGCGCCAC	-0.158
CATCGATA	0.258
AGGGTCTG	-0.234
GATTGACA	0.174
AGTCTAAT	0.0109
CCTGTGCA	-0.119
CAGACCAG	-0.0764
CCAAAGAA	0.114
AGACATTC	-0.0508
AGTACCGA	-0.117
AGAGCGCC	-0.143
CCACAGGC	-0.308
GCCACAAC	0.126

Six records picked at random from the list so far, as already listed:
Sequence	PBM E-score
GTGGGAAC	-0.144
GATTGACA	0.174
GCCAGCAA	-0.0858
AGTACCGA	-0.117
CATCGGGC	-0.081
AGAGCGCC	-0.143

(next part)

Sequence	PBM E-score
AAGCCCGC	-0.0465
AGCCATCG	-0.0037
GACTGATC	-0.00898
GATTGACC	-0.169
ACGAGCCA	-0.0272
ACTCGACC	-0.152
ATAGATAA	0.267
CACTGTAG	0.0998
CAGCACTG	-0.0716
GGCAAGGA	-0.0654
CCGGTAAA	0.0591
AAGAGAGC	-0.251
AAGTCGCA	0.135
CCATAAGC	0.215
AGACGGCA	-0.0187
ATGGCGCC	-0.095
AATCGCGA	0.194
CCGATCCG	-0.0859
TATGTCAA	0.294
AAGCGGGC	-0.113
ATACCTCG	0.134
CCTATCGC	-0.168
AAATTGTT	0.0848
CCACGCAC	-0.035
ATATGGTC	0.129

Sequence	PBM E-score
ATCTGCCA	-0.139
CTCGCTTA	0.346
CTGACCTA	-0.0425
GGAGGGCC	-0.259
ACCACACA	0.0594
ATGATTGA	0.132
ATAACCTG	0.0832
ACAGCTGC	-0.0481
CATTGTAA	0.0665
ACCGCTGC	-0.212
CATCATGA	0.122
ACGACTCC	-0.133
AACCGCAG	-0.0469
CATCAGTA	0.167
AGCTGAAT	0.231
CCTAACGC	-0.0883
CGTTCCTC	-0.103
AACCGAGG	-0.185
CACTGTTA	-0.109
CCCCGCCG	0.029
GAGTTGTA	0.0828
CATTAACA	0.098
CGACTGAG	-0.14
AGTGGAAT	0.0697
ATAACTTA	0.115

A second format for some results above:
Sequence | PBM E-score
ATGGCGCC | -0.095
AATCGCGA | 0.194

Next entries

Sequence	PBM E-score
ACAGGAGA	-0.0501
CATCCGAC	-0.141
ACAGGATG	0.0645
ACTCCCAG	0.0654
TGGGAGAA	-0.194
ATCAGCCG	0.0717
ACATCCGC	0.0458
AGCCCTAC	-0.091
GTGTTGCA	0.00557
CAATAGCG	0.127
CTATTAAC	0.115
ATAAGGAA	-0.0638
GGGATTAA	0.23
GACATGCC	-0.103
AGAAATCT	0.121
GTCATCTA	0.0599
TTATACAA	0.159
ATTGACTG	0.00256
ATTTTCGG	0.105
CCGGGACG	-0.162
CATCTCCA	-0.0213
CGCTGTAA	0.137
ACGAACAT	0.138
ACACATTG	0.182
CTTCTGGA	-0.187

Sequence	PBM E-score
AGAATTCA	0.0724
AGGGCCAG	-0.177
TGCTTCCA	-0.206
ACTGCAGT	-0.171
GGCCTCCC	-0.257
ACTCCCAT	-0.0862
GCTTCTGA	-0.00693
GGAACTTA	0.149
AGACATGA	-0.0475
AAGAGCGT	0.103
GCTACGCA	-0.129
ATTCACAC	0.111
GCGATGCC	-0.329
GTGAGCAA	-0.0402
GAGTCAGC	-0.0523
CCTAGGAC	-0.103
CCCCTCAC	0.107
ACAAATCG	0.0796
AAGATAGG	0.0177
AGCATATG	0.0101
ATTGGGGC	0.0971
AAGGCCCG	-0.334
CTTATCGA	0.168
TAAACCCA	0.08
ACACTATA	0.161

Look-ups from the entries so far.
PBM E-score with AACCGAGG reads -0.185
PBM E-score with ATGATTGA reads 0.132

The results go on:

Sequence	PBM E-score
CATGAGGC	-0.152
GTCTATAA	0.152
AGCTCCAT	-0.0241
GGTATATA	0.203
ATCAACAG	0.146
AGATAGAA	0.00031
ACAGGGAC	-0.214
CTCCGTGC	-0.168
CACCCGCA	-0.114
AACAACAT	0.0919
GCGCTTAC	0.214
AGTGTAGG	-0.051
GGGCTACA	-0.212
TGCGGACA	0.111
ACTCAAGT	-0.0957
AGATTTTG	0.0675
CACAGAGC	-0.112
GACATAAC	0.276
CACGTGCA	-0.0305
CTTAGCAA	0.123
GAAATTCA	0.167
ACTGATTC	0.113
AACCTATG	-0.0934
AGCTTAAA	-0.00083
CGGTAAGC	0.114

Sequence	PBM E-score
CCGCAAGC	-0.163
GTCGCGAC	0.317
GGACCTCA	-0.0665
GCTTCAAA	-0.0744
ATGAGGGC	-0.0834
AGAACATC	0.038
AATGTGCG	0.109
ACAAAGGC	-0.102
AACGTGCC	-0.0876
AGCTTCTG	-0.0657
GGCACTGA	-0.0895
CTAACTTC	-0.0499
CAGGGCCC	-0.133
CGTATTTA	0.308
AGGCTACA	-0.0541
ACTCTCAA	-0.0661
AAGGTTAG	-0.0019
CGATCAGC	0.0064
GGCCAGTA	-0.00787
AGATCCCG	0.159
CACCTCTA	0.0362
CTGTTAAC	0.194
CCTTACCA	-0.0985
CCAGCACC	-0.158
ACTTAAAG	-0.201

Sequence	PBM E-score
ACCACCCC	-0.235
AATGTTAT	0.153
TAAACAAA	0.14
CGGCTTGA	0.0318
CAACGCCC	-0.0754
CTACAATC	0.201
CAATACAG	0.0431
ATCGCGTG	0.133
CCGACAGG	-0.05
CGGATATA	0.246
CTTTGGAA	-0.0653
CGCTGCTC	-0.154
CCTTAATC	-0.104
AAATTCGC	0.192
CTGATGTC	0.184
ACTGAACC	-0.176
AACGGCGA	0.203
GGGCATCA	-0.233
GACTGATA	0.00101
CGGTACAC	-0.271
AACAAGAC	0.157
ACTAACGC	-0.0122
AGCTCCGC	-0.142
AGGGGGGA	-0.343
AATGGTGC	-0.0336

Sequence	PBM E-score
ATTCTTCA	0.076
CACTGGGA	-0.0729
TAGTTCCA	0.0959
AATATCTG	0.0359
GCACTACA	-0.17
ATCGATTA	0.248
CCAATGCC	-0.124
ACGTATCT	-0.198
ATTTAACG	0.135
AATGTTGG	0.114
GAAACCGC	0.185
AAGGGCCT	-0.365
CGTAGCCC	-0.0985
GAGCGTCC	-0.136
AATGGACG	0.169
AGAGTCGC	-0.0772
ACTCCTAG	-0.151
ATGACACC	0.0137
TCGGAACA	0.29

Source: the supplement of paper PMC3334620
